Assay results: publication PMC5216374
These are yes or no findings as the source states them, for the method shown. Binding seen in cells or lysates may run through a third protein. A yes stands for co-enrichment or nearness to the bait. Other partners may have been found. Tags and fused reporters may be left off the sequences shown.

By UniProt entry, the sequences of proteins in these tests, tags left out. Where a name states a change or a piece, a line headed by the entry shows the natural chain unless it says otherwise. Chains listed by the source or under a name are the forms on record and can include a tag or linker.
UniProt Q13885: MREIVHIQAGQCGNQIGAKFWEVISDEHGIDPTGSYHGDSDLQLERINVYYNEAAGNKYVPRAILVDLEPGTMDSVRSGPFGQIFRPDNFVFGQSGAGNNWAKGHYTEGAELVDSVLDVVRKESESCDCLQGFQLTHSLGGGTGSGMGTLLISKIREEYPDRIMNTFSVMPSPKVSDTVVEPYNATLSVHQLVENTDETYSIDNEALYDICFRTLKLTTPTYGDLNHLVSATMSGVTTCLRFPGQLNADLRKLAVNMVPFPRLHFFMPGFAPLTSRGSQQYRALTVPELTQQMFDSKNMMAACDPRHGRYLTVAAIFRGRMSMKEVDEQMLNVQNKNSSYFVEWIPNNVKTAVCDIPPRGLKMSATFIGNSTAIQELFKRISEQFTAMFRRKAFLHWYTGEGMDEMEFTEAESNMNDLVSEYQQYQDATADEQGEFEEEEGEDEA
UniProt P25787: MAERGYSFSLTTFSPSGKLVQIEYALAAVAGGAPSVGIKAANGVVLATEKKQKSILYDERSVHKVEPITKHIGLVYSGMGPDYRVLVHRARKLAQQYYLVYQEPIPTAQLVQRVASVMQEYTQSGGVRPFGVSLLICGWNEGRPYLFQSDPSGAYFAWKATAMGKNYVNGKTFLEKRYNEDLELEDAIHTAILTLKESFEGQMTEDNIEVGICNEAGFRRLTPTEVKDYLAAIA
Isoform 5 of Protein transport protein (O15027-5, form named): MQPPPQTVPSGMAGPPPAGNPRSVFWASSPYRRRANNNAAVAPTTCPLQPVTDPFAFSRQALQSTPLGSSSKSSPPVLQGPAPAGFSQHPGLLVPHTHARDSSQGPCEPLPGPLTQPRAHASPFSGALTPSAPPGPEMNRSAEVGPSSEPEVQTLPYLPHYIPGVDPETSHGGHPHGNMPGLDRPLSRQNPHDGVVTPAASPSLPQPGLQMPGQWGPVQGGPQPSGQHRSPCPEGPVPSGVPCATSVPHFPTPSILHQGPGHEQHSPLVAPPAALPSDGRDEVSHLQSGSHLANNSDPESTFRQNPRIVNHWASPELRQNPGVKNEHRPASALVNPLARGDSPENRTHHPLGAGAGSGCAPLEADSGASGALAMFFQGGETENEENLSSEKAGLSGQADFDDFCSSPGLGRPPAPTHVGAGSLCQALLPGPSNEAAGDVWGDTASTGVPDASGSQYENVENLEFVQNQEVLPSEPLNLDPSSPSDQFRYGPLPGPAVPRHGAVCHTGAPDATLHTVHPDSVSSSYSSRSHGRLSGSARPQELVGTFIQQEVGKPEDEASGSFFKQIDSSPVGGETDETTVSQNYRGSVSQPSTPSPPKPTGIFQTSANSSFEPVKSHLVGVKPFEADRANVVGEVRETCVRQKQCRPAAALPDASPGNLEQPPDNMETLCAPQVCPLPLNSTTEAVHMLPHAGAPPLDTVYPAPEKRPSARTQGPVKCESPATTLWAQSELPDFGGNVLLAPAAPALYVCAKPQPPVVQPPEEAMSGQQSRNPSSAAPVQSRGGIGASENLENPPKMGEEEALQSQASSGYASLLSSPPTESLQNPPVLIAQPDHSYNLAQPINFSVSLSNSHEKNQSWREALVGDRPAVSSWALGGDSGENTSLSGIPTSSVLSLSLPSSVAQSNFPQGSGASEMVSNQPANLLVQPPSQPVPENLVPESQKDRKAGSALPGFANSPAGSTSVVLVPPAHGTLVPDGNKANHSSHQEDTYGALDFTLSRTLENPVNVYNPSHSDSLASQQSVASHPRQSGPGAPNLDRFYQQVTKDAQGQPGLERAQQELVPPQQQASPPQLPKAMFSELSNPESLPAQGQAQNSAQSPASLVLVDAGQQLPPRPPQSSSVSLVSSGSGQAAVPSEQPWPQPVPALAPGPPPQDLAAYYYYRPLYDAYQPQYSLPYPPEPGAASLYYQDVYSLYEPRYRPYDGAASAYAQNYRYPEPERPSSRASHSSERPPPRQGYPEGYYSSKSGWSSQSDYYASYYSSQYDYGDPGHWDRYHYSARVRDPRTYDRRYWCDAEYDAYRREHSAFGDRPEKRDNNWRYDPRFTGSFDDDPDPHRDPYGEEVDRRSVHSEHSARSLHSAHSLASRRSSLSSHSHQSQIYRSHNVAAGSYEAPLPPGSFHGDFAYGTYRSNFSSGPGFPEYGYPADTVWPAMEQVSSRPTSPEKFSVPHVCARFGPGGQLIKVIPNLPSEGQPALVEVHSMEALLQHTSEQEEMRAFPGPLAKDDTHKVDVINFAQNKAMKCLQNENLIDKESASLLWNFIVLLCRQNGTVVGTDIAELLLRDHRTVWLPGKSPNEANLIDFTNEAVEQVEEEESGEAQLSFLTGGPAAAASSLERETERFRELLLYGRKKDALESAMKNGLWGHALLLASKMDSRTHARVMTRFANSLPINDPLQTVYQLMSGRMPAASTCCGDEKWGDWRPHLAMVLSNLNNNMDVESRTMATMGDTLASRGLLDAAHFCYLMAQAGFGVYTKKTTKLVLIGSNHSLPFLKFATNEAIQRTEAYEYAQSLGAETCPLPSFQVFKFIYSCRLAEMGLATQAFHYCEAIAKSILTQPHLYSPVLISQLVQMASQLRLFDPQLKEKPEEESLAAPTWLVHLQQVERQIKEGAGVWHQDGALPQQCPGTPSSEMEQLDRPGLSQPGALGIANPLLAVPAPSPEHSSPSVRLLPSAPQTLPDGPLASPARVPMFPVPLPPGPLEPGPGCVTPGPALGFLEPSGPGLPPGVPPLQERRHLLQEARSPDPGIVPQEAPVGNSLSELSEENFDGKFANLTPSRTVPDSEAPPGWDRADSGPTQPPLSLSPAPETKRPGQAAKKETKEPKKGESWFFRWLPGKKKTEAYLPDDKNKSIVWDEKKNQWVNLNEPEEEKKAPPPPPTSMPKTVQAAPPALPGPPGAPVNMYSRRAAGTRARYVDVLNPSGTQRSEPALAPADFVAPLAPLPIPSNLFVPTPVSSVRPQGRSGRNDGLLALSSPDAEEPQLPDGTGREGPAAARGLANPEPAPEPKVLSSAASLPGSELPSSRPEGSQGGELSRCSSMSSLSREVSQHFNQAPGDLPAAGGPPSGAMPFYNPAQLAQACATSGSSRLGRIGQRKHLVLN
Isoform long of proteasome subunit alpha type-1 (P25786-2, form named): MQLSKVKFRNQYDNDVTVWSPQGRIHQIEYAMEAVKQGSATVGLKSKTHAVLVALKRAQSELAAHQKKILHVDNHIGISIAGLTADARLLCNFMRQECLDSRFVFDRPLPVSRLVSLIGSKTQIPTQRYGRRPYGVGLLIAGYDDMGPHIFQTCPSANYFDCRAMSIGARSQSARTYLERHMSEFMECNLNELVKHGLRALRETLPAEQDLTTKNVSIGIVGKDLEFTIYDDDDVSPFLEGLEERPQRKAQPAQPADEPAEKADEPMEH
UniProt O95071: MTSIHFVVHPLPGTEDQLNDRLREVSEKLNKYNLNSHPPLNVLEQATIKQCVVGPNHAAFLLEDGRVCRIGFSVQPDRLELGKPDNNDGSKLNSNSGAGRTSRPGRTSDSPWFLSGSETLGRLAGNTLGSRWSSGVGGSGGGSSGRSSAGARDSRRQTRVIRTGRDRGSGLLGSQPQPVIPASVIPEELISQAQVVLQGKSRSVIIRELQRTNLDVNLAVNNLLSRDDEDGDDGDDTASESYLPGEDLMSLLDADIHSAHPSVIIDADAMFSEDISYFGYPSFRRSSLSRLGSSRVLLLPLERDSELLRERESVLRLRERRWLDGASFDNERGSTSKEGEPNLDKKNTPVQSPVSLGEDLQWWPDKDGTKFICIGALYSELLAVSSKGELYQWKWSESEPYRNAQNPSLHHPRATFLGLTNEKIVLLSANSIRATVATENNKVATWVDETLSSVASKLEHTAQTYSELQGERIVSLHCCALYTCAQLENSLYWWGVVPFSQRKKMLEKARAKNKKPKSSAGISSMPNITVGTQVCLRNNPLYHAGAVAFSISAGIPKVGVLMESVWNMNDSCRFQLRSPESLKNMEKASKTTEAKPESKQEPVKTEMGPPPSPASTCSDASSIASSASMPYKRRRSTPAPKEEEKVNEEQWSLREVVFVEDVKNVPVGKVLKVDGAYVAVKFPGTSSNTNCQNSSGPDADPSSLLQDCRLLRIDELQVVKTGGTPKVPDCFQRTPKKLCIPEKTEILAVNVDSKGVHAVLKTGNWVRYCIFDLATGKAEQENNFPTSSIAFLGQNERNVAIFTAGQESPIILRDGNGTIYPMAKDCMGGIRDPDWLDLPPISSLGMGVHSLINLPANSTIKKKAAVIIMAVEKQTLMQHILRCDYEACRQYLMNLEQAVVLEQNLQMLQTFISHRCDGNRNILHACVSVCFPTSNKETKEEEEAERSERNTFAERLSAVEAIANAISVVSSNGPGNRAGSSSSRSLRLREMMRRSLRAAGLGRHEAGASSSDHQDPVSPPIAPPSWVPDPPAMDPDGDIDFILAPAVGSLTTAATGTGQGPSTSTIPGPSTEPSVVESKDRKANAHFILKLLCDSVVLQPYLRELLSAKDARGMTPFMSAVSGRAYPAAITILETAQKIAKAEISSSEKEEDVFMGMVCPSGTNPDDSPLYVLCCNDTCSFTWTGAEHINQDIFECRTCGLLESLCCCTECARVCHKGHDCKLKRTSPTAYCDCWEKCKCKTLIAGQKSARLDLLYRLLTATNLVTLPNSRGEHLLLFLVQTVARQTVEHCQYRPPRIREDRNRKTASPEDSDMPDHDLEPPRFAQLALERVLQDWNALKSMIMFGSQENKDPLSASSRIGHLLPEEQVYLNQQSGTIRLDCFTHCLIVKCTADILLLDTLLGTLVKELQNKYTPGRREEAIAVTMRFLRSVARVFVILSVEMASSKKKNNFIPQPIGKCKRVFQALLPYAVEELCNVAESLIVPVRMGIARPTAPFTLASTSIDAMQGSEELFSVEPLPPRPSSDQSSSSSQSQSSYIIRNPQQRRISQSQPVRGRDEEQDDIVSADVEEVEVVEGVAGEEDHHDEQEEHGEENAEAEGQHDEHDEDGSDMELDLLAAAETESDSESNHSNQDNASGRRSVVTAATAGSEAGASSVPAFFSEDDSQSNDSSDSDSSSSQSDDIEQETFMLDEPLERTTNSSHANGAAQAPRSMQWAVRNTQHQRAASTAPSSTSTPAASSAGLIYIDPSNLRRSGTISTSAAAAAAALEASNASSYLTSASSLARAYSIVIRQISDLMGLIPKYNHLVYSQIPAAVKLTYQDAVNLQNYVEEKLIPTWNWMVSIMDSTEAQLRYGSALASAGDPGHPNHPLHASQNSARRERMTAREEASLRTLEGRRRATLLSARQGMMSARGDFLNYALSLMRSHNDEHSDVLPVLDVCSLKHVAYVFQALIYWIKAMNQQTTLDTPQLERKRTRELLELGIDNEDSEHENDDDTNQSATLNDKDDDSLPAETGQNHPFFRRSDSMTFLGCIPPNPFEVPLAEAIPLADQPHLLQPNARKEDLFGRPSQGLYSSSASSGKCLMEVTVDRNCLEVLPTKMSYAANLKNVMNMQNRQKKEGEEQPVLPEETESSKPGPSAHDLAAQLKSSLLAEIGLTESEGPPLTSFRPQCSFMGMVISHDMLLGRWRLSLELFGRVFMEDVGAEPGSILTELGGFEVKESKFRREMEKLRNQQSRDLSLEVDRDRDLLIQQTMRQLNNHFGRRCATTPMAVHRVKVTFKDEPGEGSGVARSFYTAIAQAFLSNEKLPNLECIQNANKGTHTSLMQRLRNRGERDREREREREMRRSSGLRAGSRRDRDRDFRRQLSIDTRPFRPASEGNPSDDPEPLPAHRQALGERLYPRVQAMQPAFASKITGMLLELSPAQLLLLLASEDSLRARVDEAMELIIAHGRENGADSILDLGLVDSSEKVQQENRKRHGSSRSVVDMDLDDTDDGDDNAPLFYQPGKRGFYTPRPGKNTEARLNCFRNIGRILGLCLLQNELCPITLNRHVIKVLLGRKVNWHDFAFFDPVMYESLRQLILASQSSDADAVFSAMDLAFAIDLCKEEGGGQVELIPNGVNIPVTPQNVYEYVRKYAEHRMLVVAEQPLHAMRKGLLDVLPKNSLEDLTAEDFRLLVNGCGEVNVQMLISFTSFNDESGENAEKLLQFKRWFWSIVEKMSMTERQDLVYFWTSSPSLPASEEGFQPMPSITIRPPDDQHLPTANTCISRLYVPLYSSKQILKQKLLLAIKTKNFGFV
UniProt Q6P582: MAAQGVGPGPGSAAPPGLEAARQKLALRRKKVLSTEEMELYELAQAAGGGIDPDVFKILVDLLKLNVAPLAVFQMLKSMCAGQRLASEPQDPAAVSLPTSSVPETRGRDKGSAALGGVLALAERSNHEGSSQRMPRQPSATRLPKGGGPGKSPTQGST
UniProt O14818: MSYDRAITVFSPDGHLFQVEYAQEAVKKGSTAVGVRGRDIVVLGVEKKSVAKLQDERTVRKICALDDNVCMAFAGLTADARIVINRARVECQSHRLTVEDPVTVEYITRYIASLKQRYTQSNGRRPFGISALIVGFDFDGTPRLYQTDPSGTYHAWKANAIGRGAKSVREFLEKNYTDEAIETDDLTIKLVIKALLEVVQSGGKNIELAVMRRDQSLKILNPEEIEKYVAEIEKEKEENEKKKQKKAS

T1: full length TRIM14 ORF tagged at the C-terminus with 3xFLAG (human) (UniProt Q14142)
T1 sequence: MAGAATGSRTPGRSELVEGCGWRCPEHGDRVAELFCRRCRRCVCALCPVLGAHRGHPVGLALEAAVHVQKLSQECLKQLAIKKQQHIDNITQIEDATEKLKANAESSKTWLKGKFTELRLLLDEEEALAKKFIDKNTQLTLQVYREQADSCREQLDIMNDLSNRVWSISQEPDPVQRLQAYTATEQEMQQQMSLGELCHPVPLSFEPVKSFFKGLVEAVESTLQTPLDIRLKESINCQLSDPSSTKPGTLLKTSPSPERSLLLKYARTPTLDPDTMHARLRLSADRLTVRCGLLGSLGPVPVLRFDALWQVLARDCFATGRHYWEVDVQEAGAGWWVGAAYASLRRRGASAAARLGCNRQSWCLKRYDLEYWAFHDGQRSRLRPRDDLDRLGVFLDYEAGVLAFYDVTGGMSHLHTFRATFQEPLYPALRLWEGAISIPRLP


Target: T1, full length TRIM14 ORF tagged at the C-terminus with 3xFLAG (human)
Test: affinity purification with mass spectrometry; anti-FLAG affinity gel IP of C-terminally 3xFLAG-tagged TRIM14 from HEK293T lysate 48 h after transfection, overnight at 4 °C; eluted with 0.15% TFA, trypsin, LC-MS/MS; proteins also found with empty FLAG vector excluded; hits seen in at least 2 of 3 biological experiments

Row | binding | Molecule
1 | binds | Bifunctional glutamate/proline--tRNA ligase (from UniProt P07814 1-1512)
2 | binds | Structural maintenance of chromosomes protein (from UniProt Q9NTJ3 1-1288)
3 | binds | Tubulin beta-8 chain (from UniProt Q3ZCM7 1-444)
4 | binds | 26S proteasome non-ATPase regulatory subunit 4 (from UniProt P55036 1-377)
5 | binds | DNA-dependent protein kinase catalytic subunit (from UniProt P78527 1-4128)
6 | binds | Isoform 1 of Fanconi anemia group I protein (from UniProt Q9NVI1-1 1-1268)
7 | binds | Proteasome 26S Subunit, ATPase 6 (from UniProt P62333 1-389)
8 | binds | 26S proteasome non-ATPase regulatory subunit 6 f (from UniProt Q15008 1-389)
9 | binds | CAD protein (from UniProt P27708 1-2225)
10 | binds | Tubulin beta-2A chain (from UniProt Q13885 1-445)
11 | binds | Pumilio homolog 1 (from UniProt Q14671 1-1186)
12 | binds | Isoform 2 of RING finger protein 126 (human (endogenous in HEK293T))
13 | binds | Apoptosis-inducing factor 1, mitochondrial (from UniProt O95831)
14 | binds | Proteasome subunit alpha type-2 (from UniProt P25787 1-234)
15 | binds | Isoform 5 of Protein transport protein (from UniProt O15027-5 1-2379)
16 | binds | Isoform 2 of A-kinase anchor protein 12 (from UniProt Q02952-2 1-1684)
17 | binds | S-phase kinase-associated protein 1 (from UniProt P63208 1-163)
18 | binds | Isoform 2 of E3 ubiquitin-protein ligase HUWEI (from UniProt Q7Z6Z7-2 1-4358)
19 | binds | DnaJ homolog subfamily A member 2 (from UniProt O60884 1-412)
20 | binds | Isoform long of proteasome subunit alpha type-1 (from UniProt P25786-2 1-269)
21 | binds | Translational activator GCN1 (from UniProt Q92616 1-2671)
22 | binds | E3 ubiquitin-protein ligase UBR5 (from UniProt O95071 1-2799)
23 | binds | Structural maintenance of chromosomes protein 2 (from UniProt O95347 1-1197)

Row | binding | Molecule
24 | binds | DnaJ homolog subfamily B member 1 (from UniProt P25685 1-340)
25 | binds | Golgi-specific brefeldin A-resistance guanine nucleotide exchange factor 1 (from UniProt Q92538 1-1860)
26 | binds | DNA damage-binding protein 1 (from UniProt Q16531 1-1140)
27 | binds | La Ribonucleoprotein Domain Family Member 4B (from UniProt Q92615 1-738)
28 | binds | Tubulin alpha-1C chain (from UniProt Q9BQE3 1-449)
29 | binds | Heat shock 70 kDa protein 4L (from UniProt O95757 1-839)
30 | binds | Prefoldin subunit 2 (from UniProt Q9UHV9 1-154)
31 | binds | Mitotic-spindle organizing protein 2A (from UniProt Q6P582 1-158)
32 | binds | Acidic leucine-rich nuclear phosphoprotein 32 family member A (from UniProt P39687 1-249)
33 | binds | Proteasome activator complex subunit 3 (from UniProt P61289 1-254)
34 | binds | Isoform 2 of HCLS1-associated protein X-1 (from UniProt O00165-2 1-287)
35 | binds | Tubulin beta-6 chain (from UniProt Q9BUF5 1-446)
36 | binds | Proteasome subunit alpha type-7 (from UniProt O14818 1-248)
37 | binds | Proteasomal ubiquitin receptor ADRM1 (from UniProt Q16186 1-407)
38 | binds | Sequestosome-1 p62 (from UniProt Q13501 1-440)
39 | binds | Tubulin beta-4A chain (from UniProt P04350 1-444)
40 | binds | E3 ubiquitin-protein ligase CHIP (from UniProt Q9UNE7 1-303)
41 | binds | HEAT repeat-containing protein 6 (from UniProt Q6AI08 1-1181)
42 | binds | Interleukin-1 receptor-associated kinase 1 (from UniProt P51617 1-712)
43 | binds | BAG family molecular chaperone regulator 2 (from UniProt O95816 1-211)
44 | binds | Serine/threonine-protein phosphatase 6 regulatory subunit 1 (protein, UniProt Q9UPN7 1-881) MFWKFDLHTSSHLDTLLEREDLSLPELLDEEDVLQECKVVNRKLLDFLLQPPHLQAMVAWVTQEPPDSGEERLRYKYPSVACEILTSDVPQINDALGADESLLNRLYGFLQSTGSLNPLLASFFSKVMGILINRKTDQLVSFLRKKDDFVDLLLQHIGTSAIMDLLLRLLTCVERPQLRQDVVNWLNEEKIVQRLIEQIHPSKDENQHSNASQSLCDIIRLSREQMIQVQDSPEPDQLLATLEKQETIEQLLSNMFEGEQSQSVIVSGIQVLLTLLEPRRPRSESVTVNSFFSSVDGQLELLAQGALESTVSSVGALHALRPRLSCFHQLLLEPPKLEPLQMTWGMLAPPLGNTRLHVVKLLASALSANDAALTHELLALDVPNTMLDLFFHYVFNNFLHAQVEGCVSTMLSLGPPPDSSPETPIQNPVVKHLLQQCRLVERILTSWEENDRVQCAGGPRKGYMGHLTRVAGALVQNTEKGPNAEQLRQLLKELPSEQQEQWEAFVSGPLAETNKKNMVDLVNTHHLHSSSDDEDDRLKEFNFPEEAVLQQAFMDFQMQRMTSAFIDHFGFNDEEFGEQEESVNAPFDKTANITFSLNADDENPNANLLEICYKDRIQQFDDDEEEEDEEEAQGSGESDGEDGAWQGSQLARGARLGQPPGVRSGGSTDSEDEEEEDEEEEEDEEGIGCAARGGATPLSYPSPGPQPPGPSWTATFDPVPTDAPTSPRVSGEEELHTGPPAPQGPLSVPQGLPTQSLASPPARDALQLRSQDPTPPSAPQEATEGSKVTEPSAPCQALVSIGDLQATFHGIRSAPSSSDSATRDPSTSVPASGAHQPPQTTEGEKSPEPLGLPQSQSAQALTPPPIPNGSAPEGPASPGSQ
45 | binds | A-kinase anchor protein 8-like (protein, UniProt Q9ULX6 1-646) MSYTGFVQGSETTLQSTYSDTSAQPTCDYGYGTWNSGTNRGYEGYGYGYGYGQDNTTNYGYGMATSHSWEMPSSDTNANTSASGSASADSVLSRINQRLDMVPHLETDMMQGGVYGSGGERYDSYESCDSRAVLSERDLYRSGYDYSELDPEMEMAYEGQYDAYRDQFRMRGNDTFGPRAQGWARDARSGRPMASGYGRMWEDPMGARGQCMSGASRLPSLFSQNIIPEYGMFQGMRGGGAFPGGSRFGFGFGNGMKQMRRTWKTWTTADFRTKKKKRKQGGSPDEPDSKATRTDCSDNSDSDNDEGTEGEATEGLEGTEAVEKGSRVDGEDEEGKEDGREEGKEDPEKGALTTQDENGQTKRKLQAGKKSQDKQKKRQRDRMVERIQFVCSLCKYRTFYEDEMASHLDSKFHKEHFKYVGTKLPKQTADFLQEYVTNKTKKTEELRKTVEDLDGLIQQIYRDQDLTQEIAMEHFVKKVEAAHCAACDLFIPMQFGIIQKHLKTMDHNRNRRLMMEQSKKSSLMVARSILNNKLISKKLERYLKGENPFTDSPEEEKEQEEAEGGALDEGAQGEAAGISEGAEGVPAQPPVPPEPAPGAVSPPPPPPPEEEEEGAVPLLGGALQRQIRGIPGLDVEDDEEGGGGAP
46 | binds | E3 ubiquitin-protein ligase Praja-1 (protein, UniProt Q8NG27 1-643) MGQESSKPVWPNPTGGYQSNTGRRYGRRHAYVSFRPPTSQRERIASQRKTNSEVPMHRSAPSQTTKRSRSPFSTTRRSWDDSESSGTNLNIDNEDYSRYPPREYRASGSRRGMAYGHIDSYGADDSEEEGAGPVERPPVRGKTGKFKDDKLYDPEKGARSLAGPPPHFSSFSRDVREERDKLDPVPAARCSASRADFLPQSSVASQSSSEGKLATKGDSSERERREQNLPARPSRAPVSICGGGENTSKSAEEPVVRPKIRNLASPNCVKPKIFFDTDDDDDMPHSTSRWRDTANDNEGHSDGLARRGRGESSSGYPEPKYPEDKREARSDQVKPEKVPRRRRTMADPDFWTHSDDYYKYCDEDSDSDKEWIAALRRKYRSREQTLSSSGESWETLPGKEEREPPQAKVSASTGTSPGPGASASAGAGAGASAGSNGSNYLEEVREPSLQEEQASLEEGEIPWLQYHENDSSSEGDNDSGHELMQPGVFMLDGNNNLEDDSSVSEDLEVDWSLFDGFADGLGVAEAISYVDPQFLTYMALEERLAQAMETALAHLESLAVDVEVANPPASKESIDALPEILVTEDHGAVGQEMCCPICCSEYVKGEVATELPCHHYFHKPCVSIWLQKSGTCPVCRCMFPPPL

Row | Molecule | binding
47 | Programmed cell death protein 5 (from UniProt O14737 1-125) | binds
